T/C and survivor count data for five molecules are collected here from PubChem BioAssay AID248 (DTP/NCI, 2004).

In the experiment the test system is L1210 leukemia ip in BDF1 mice, survival T/C. Briefly: NCI In Vivo Anticancer Drug Screen. Data for tumor model L1210 Leukemia (intraperitoneal) in B6D2F1 (BDF1) mice. Particulars: higher T/C = longer survival.
Where [1] appears, read: T/C endpoint: mean survival time, dose: 135.0 mg/kg/injection, schedule: Q01DX Z (ip), vehicle: saline.

The list does not hold the whole screen: it gathers tests that were run many times, whatever their T/C, doses with no T/C, and many T/C values between a quarter and a half above the control. Further doses and runs are listed elsewhere. T/C gives the treated animals as a percentage of the vehicle group. Some doses have a count of surviving animals in place of a T/C: the source holds a T/C of zero for them, seemingly a mark for toxic or unscored doses. Some survivor counts are full or nearly so, which does not show that the dose was tolerated: the source hardly ever lists a survival T/C far under the control, and the zero likely stands for such cases as well. Survivors were counted at the toxicity check, usually on the fifth day, unless a day is given; later deaths do not show. Schedules are NCI's codes, taken here to give the interval after Q, in days (D) or hours (H), and the number of doses after X. Some schedules carry Z or #; the key to these is not given. Some entries hold several experiments; their values stand side by side, smallest first. Where survival is the endpoint, the PubChem record calls one and a half times the control and up active, and a quarter to a half above the control has no call in these data; cut-offs in other NCI protocols can differ. Some T/C values carry the count of animals alive at the toxicity check (mostly the fifth day); where none is given, no animal had died by that day.

For `CN(N=O)C(=O)NC(C=O)C(O)C(O)C(O)CO` (configuration not stated), the T/C runs as follows: (T/C endpoint: mean survival time, dose: 9.0 mg/kg/injection, schedule: Q#A X025 (ip), vehicle: water) 125 % of control; (T/C endpoint: mean survival time, dose: 13.5 mg/kg/injection, schedule: Q#A X025 (ip), vehicle: water) 130 % of control; (T/C endpoint: mean survival time, dose: 20.0 mg/kg/injection, schedule: Q#A X Z (ip), vehicle: saline) 140 and 146 % of control; (T/C endpoint: mean survival time, dose: 25.0 mg/kg/injection, schedule: Q01DX Z (ip), vehicle: saline) 103, 107, 117, 125 % of control; (T/C endpoint: mean survival time, dose: 25.0 mg/kg/injection, schedule: Q01DX Z (ip), vehicle: water) 128 % of control; (T/C endpoint: mean survival time, dose: 27.0 mg/kg/injection, schedule: Q01DX013 (ip), vehicle: water) 136 % of control. Besides, the T/C was 141 % of control (T/C endpoint: mean survival time, dose: 40.0 mg/kg/injection, schedule: Q01DX013 (ip), vehicle: water); 135 and 147 % of control (T/C endpoint: mean survival time, dose: 40.0 mg/kg/injection, schedule: Q01DX Z (ip), vehicle: saline); 132 % of control (T/C endpoint: mean survival time, dose: 49.5 mg/kg/injection, schedule: Q01DX Z (ip), vehicle: water); 144 % of control [6 of 7 alive] (T/C endpoint: mean survival time, dose: 49.6 mg/kg/injection, schedule: Q01DX Z (ip), vehicle: water); 94, 115, 142, 152 % of control (T/C endpoint: mean survival time, dose: 50.0 mg/kg/injection, schedule: Q01DX Z (ip), vehicle: saline); 147 % of control (T/C endpoint: mean survival time, dose: 50.0 mg/kg/injection, schedule: Q01DX Z (ip), vehicle: water). In addition, the T/C is 125 % of control (T/C endpoint: mean survival time, dose: 54.0 mg/kg/injection, schedule: Q03DX003 (ip), vehicle: saline); 125 % of control (T/C endpoint: mean survival time, dose: 54.0 mg/kg/injection, schedule: Q07DX001 (ip), vehicle: saline); 138 and 148 % of control (T/C endpoint: mean survival time, dose: 60.0 mg/kg/injection, schedule: Q01DX Z (ip), vehicle: saline); 105, 111, 113, 120 % of control (T/C endpoint: mean survival time, dose: 60.0 mg/kg/injection, schedule: Q01DX Z (sc), vehicle: saline); 130 % of control (T/C endpoint: mean survival time, dose: 78.0 mg/kg/injection, schedule: Q03DX Z (ip), vehicle: saline); 137 % of control (T/C endpoint: mean survival time, dose: 90.0 mg/kg/injection, schedule: Q01DX Z (ip), vehicle: saline). Moreover, the T/C runs as follows: (T/C endpoint: mean survival time, dose: 90.0 mg/kg/injection, schedule: Q01DX Z (sc), vehicle: saline) 112, 113, 118, 129 % of control; (T/C endpoint: mean survival time, dose: 99.6 mg/kg/injection, schedule: Q01DX Z (ip), vehicle: water) 133 % of control; (T/C endpoint: mean survival time, dose: 100.0 mg/kg/injection, schedule: Q01DX Z (ip), vehicle: water) 128 % of control; (T/C endpoint: mean survival time, dose: 120.0 mg/kg/injection, schedule: Q03DX004 (ip), vehicle: saline) 147 % of control; (T/C endpoint: mean survival time, dose: 120.0 mg/kg/injection, schedule: Q03DX005 (ip), vehicle: saline) 137 % of control; (T/C endpoint: mean survival time, dose: 120.0 mg/kg/injection, schedule: Q03DX 5 (iv), vehicle: saline) 132 % of control. Also, the T/C was 140 % of control (T/C endpoint: mean survival time, dose: 120.0 mg/kg/injection, schedule: Q03DX Z (ip), vehicle: saline); 131 % of control (T/C endpoint: mean survival time, dose: 120.0 mg/kg/injection, schedule: Q07DX001 (ip), vehicle: saline); 94, 119, 137 % of control under setting [1]; 135 % of control (T/C endpoint: mean survival time, dose: 180.0 mg/kg/injection, schedule: Q01DX001 (ip), vehicle: saline); 147 % of control (T/C endpoint: mean survival time, dose: 180.0 mg/kg/injection, schedule: Q03DX004 (ip), vehicle: saline); 125 % of control (T/C endpoint: mean survival time, dose: 180.0 mg/kg/injection, schedule: Q03DX 5 (iv), vehicle: saline). The T/C reads like this: (T/C endpoint: mean survival time, dose: 200.0 mg/kg/injection, schedule: Q01DX009 (ip), vehicle: saline) 136 % of control; (T/C endpoint: mean survival time, dose: 270.0 mg/kg/injection, schedule: Q01DX001 (ip), vehicle: saline) 125 and 126 % of control; (T/C endpoint: mean survival time, dose: 280.0 mg/kg/injection, schedule: Q07DX Z (ip), vehicle: saline) 135 % of control; (T/C endpoint: median survival time, dose: 100.0 mg/kg/injection, schedule: Q01DX017 (ip), vehicle: water) 133 % of control. The survivor count runs as follows: (T/C endpoint: mean survival time, dose: 45.0 mg/kg/injection, schedule: Q#A X Z (ip), vehicle: saline) 0 of 6; (T/C endpoint: mean survival time, dose: 67.5 mg/kg/injection, schedule: Q#A X Z (ip), vehicle: saline) 0 of 6; under setting [1], 0 of 6; (T/C endpoint: mean survival time, dose: 200.0 mg/kg/injection, schedule: Q01DX Z (ip), vehicle: saline) 5 of 6 and 6 of 6; (T/C endpoint: mean survival time, dose: 200.0 mg/kg/injection, schedule: Q01DX Z (ip), vehicle: water) 3 of 7; (T/C endpoint: mean survival time, dose: 202.0 mg/kg/injection, schedule: Q01DX Z (iv), vehicle: saline) 4 of 6. Further, the survivor count runs as follows: (T/C endpoint: mean survival time, dose: 202.0 mg/kg/injection, schedule: Q01DX Z (sc), vehicle: saline) 4 of 6; (T/C endpoint: mean survival time, dose: 270.0 mg/kg/injection, schedule: Q03DX Z (ip), vehicle: saline) 0 of 6; (T/C endpoint: mean survival time, dose: 300.0 mg/kg/injection, schedule: Q01DX Z (ip), vehicle: saline) 3 of 6; (T/C endpoint: mean survival time, dose: 360.0 mg/kg/injection, schedule: Q01DX Z (oral), vehicle: saline) 3 of 6; (T/C endpoint: mean survival time, dose: 400.0 mg/kg/injection, schedule: Q01DX Z (im), vehicle: saline) 2 of 6; (T/C endpoint: mean survival time, dose: 405.0 mg/kg/injection, schedule: Q01DX 1 (iv), vehicle: saline) 2 of 6. In addition, the survivor count by setting is: (T/C endpoint: mean survival time, dose: 405.0 mg/kg/injection, schedule: Q03DX Z (ip), vehicle: saline) 0 of 6; (T/C endpoint: mean survival time, dose: 450.0 mg/kg/injection, schedule: Q01DX Z (ip), vehicle: saline) 0 of 6; (T/C endpoint: mean survival time, dose: 610.0 mg/kg/injection, schedule: Q01DX001 (ip), vehicle: saline) 1 of 6; (T/C endpoint: mean survival time, dose: 630.0 mg/kg/injection, schedule: Q07DX Z (ip), vehicle: saline) 0 of 6; (T/C endpoint: mean survival time, dose: 800.0 mg/kg/injection, schedule: Q01DX Z (im), vehicle: saline) 1 of 6; (T/C endpoint: mean survival time, dose: 915.0 mg/kg/injection, schedule: Q01DX001 (ip), vehicle: saline) 0 of 6. The survivor count is 1 of 6 (T/C endpoint: mean survival time, dose: 945.0 mg/kg/injection, schedule: Q07DX Z (ip), vehicle: saline) and 7 of 8 (T/C endpoint: median survival time, dose: 200.0 mg/kg/injection, schedule: Q01DX017 (ip), vehicle: water).

For `O=C(/C=N/O)c1cccnc1`, the survivor count is, setting by setting: (T/C endpoint: mean survival time, dose: 200.0 mg/kg/injection, schedule: Q04DX003 (ip), vehicle: saline with Tween-80) 3 of 6; (T/C endpoint: mean survival time, dose: 400.0 mg/kg/injection, schedule: Q04DX003 (ip), vehicle: saline with Tween-80) 2 of 6.

For the molecule `CS(=O)(=O)OCCN(CCOS(C)(=O)=O)c1ccc(C=Nc2ccc(-c3csc(-c4ccc(Cl)cc4)n3)cc2)cc1`, the T/C is 129 % of control (T/C endpoint: mean survival time, dose: 50.0 mg/kg/injection, schedule: Q04DX003 (ip), vehicle: Klucel (hydroxypropylcellulose) (HPC)); 135, 137, 140 % of control (T/C endpoint: mean survival time, dose: 100.0 mg/kg/injection, schedule: Q04DX003 (ip), vehicle: Klucel (hydroxypropylcellulose) (HPC)); 125 and 137 % of control [5 of 6 alive] (T/C endpoint: mean survival time, dose: 200.0 mg/kg/injection, schedule: Q04DX003 (ip), vehicle: Klucel (hydroxypropylcellulose) (HPC)). In addition, the survivor count (T/C endpoint: mean survival time, dose: 400.0 mg/kg/injection, schedule: Q04DX003 (ip), vehicle: Klucel (hydroxypropylcellulose) (HPC)) is 5 of 6.

Turning to `CCCCCC/C(C)=N/O`, the survivor count (T/C endpoint: mean survival time, dose: 400.0 mg/kg/injection, schedule: Q01DX009 (ip), vehicle: saline with Tween-80) is on record as 1 of 6.

Take `COc1cccc(/C=N/Nc2nnc(N/N=C/c3cccc(OC)c3)c3ccccc23)c1`: under “T/C endpoint: mean survival time, dose: 400.0 mg/kg/injection, schedule: Q01DX001 (ip), vehicle: carboxymethylcellulose (CMC)”, the survivor count is 2 of 4.
